No constants are given. Whether binding was seen depends on the method and setting. For part of these data: In cells and extracts the contact can be indirect. Some entries that bind do so weakly or less than the wild type. For part of these data: Sequences can lack the tags named with a protein. One block for each molecule: values may come before it.
Assays:
Flag-NEK7 S221A = Flag-NEK7 S221A (UniProt Q9ES74); experiment: co-IP; HEK293T cells transfected with tagged plasmids, lysed 24 h later in IP buffer (50 mM Tris HCl pH 7.4, 50 mM EDTA, 200 mM NaCl, 1% NP-40); anti-Flag affinity gel or anti-c-Myc agarose, 2 h at 4 °C; with or without 10 µM GSK461364 for 1 h
Flag-NEK7 WT = Flag-NEK7 WT (UniProt Q9ES74); experiment: as above
Flag-NEK7 S260A = Flag-NEK7 S260A (UniProt Q9ES74); experiment: as above
[1] = target: NEK7, endogenous (mouse (endogenous in mouse peritoneal macrophages)) (UniProt Q9ES74); experiment: co-IP; endogenous proteins in lysates of mouse peritoneal macrophages (IP buffer: 50 mM Tris HCl pH 7.4, 50 mM EDTA, 200 mM NaCl, 1% NP-40); primary antibody overnight at 4 °C, protein A/G-agarose; cells untreated or LPS 100 ng/mL 3 h, then nigericin 10 µM 1 h; with si-Ctrl or si-PLK1, with or without 10 µM GSK461364
[2] = target: NEK7, endogenous (mouse (endogenous in mouse peritoneal macrophages)) (UniProt Q9ES74); experiment: proximity ligation; Duolink PLA in fixed mouse peritoneal macrophages primed with LPS (100 ng/mL, 3 h) and stimulated with nigericin or ATP
[3] = target: Recombinant mouse NEK7-GST (mouse) (UniProt Q9ES74); experiment: pull-down; GST or NEK7-GST on glutathione resin, incubated with PLK1-his for 2 h at 4 °C in 20 mM Tris-HCl pH 7.9, 150 mM NaCl, 0.5 mM EDTA, 10% glycerol, 1 mM DTT, 0.1% Triton X-100; immunoblot; both purified
Myc-NEK7 = Myc-NEK7 (UniProt Q9ES74); experiment: co-IP; HEK293T cells transfected with tagged plasmids, lysed 24 h later in IP buffer (50 mM Tris HCl pH 7.4, 50 mM EDTA, 200 mM NaCl, 1% NP-40); anti-Flag affinity gel or anti-c-Myc agarose, 2 h at 4 °C; with or without 10 µM GSK461364 for 1 h
Myc-NLRP3, Q8R4B8 = target: T1, Myc-NLRP3, Q8R4B8; experiment: as above; conditions: remark: other sources report otherwise
T1 chain: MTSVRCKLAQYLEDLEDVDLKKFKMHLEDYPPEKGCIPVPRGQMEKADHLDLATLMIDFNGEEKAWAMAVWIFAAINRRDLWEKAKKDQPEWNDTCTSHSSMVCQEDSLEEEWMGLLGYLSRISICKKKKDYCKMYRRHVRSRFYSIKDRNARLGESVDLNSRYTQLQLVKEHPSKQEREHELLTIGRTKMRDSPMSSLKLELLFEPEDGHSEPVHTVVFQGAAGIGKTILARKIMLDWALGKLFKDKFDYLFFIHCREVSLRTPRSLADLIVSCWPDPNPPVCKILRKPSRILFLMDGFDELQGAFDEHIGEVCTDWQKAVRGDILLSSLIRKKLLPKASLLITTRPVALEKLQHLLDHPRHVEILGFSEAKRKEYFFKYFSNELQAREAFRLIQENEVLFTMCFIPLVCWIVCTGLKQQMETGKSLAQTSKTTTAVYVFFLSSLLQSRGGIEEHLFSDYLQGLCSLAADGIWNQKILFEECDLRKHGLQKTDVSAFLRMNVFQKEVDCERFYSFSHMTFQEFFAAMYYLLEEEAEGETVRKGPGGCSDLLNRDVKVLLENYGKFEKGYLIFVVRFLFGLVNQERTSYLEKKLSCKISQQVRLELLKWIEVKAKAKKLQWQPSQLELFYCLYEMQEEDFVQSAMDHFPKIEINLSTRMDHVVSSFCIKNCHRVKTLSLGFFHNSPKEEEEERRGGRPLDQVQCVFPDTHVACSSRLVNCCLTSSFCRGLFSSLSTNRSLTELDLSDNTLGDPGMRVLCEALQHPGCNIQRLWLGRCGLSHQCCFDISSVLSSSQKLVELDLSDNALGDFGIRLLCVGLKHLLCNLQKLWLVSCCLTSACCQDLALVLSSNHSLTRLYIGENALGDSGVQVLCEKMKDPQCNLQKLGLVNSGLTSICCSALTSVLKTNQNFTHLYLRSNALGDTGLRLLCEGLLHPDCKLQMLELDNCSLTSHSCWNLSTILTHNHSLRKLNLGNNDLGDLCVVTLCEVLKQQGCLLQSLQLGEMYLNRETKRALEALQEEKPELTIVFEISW

Protein sequences, listed by entry. Tags and fused reporters are not part of them. Lines headed by an entry give the natural chain unless they say otherwise; changes in a name come on top.
UniProt Q9ES74: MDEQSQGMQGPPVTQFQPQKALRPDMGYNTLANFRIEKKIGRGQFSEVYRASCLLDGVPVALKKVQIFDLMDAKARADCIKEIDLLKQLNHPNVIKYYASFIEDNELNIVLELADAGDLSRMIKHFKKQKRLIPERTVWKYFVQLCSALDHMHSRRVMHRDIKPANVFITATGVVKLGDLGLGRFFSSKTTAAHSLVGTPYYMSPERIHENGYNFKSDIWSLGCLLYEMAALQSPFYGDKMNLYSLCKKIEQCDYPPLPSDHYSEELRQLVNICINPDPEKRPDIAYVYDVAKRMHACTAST

[4] = target: T2, NLRP3, endogenous (mouse (endogenous in mouse peritoneal macrophages)), Q8R4B8; experiment: co-IP; endogenous proteins in lysates of mouse peritoneal macrophages (IP buffer: 50 mM Tris HCl pH 7.4, 50 mM EDTA, 200 mM NaCl, 1% NP-40); primary antibody overnight at 4 °C, protein A/G-agarose; cells untreated or LPS 100 ng/mL 3 h, then nigericin 10 µM 1 h; with si-Ctrl or si-PLK1, with or without 10 µM GSK461364; conditions: remark: other sources report otherwise
T2 chain: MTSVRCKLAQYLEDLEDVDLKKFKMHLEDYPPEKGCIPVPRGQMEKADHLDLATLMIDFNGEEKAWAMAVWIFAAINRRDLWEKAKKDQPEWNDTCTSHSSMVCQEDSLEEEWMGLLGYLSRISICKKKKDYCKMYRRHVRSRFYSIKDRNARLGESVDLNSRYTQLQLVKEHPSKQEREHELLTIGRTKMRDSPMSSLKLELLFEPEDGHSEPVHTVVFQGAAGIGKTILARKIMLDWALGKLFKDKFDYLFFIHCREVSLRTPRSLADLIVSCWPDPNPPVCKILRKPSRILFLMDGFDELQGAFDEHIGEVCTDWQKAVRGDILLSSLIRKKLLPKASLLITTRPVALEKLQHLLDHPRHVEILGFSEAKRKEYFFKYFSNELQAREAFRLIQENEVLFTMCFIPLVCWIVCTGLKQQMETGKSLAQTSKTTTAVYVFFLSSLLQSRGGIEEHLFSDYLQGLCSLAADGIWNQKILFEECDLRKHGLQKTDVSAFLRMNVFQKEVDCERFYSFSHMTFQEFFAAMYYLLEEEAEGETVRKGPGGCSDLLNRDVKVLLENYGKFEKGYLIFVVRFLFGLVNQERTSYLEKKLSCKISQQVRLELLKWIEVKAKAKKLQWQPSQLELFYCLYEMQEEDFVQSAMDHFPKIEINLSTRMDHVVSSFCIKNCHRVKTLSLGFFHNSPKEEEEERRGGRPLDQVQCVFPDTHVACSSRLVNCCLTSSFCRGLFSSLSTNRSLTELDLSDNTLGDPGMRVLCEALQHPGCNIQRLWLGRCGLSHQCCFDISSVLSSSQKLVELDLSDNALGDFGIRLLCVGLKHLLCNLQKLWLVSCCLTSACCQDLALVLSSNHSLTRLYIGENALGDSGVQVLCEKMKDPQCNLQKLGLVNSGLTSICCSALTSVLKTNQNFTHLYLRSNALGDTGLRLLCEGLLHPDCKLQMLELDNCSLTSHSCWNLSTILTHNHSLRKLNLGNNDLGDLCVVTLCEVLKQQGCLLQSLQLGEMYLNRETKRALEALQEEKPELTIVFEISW

Molecule: Myc-PLK1 (Polo-like kinase 1) (from UniProt Q07832 1-603) (enzyme)
binding (Flag-NEK7 S221A): binds
binding (Flag-NEK7 WT): binds
binding (Flag-NEK7 S260A): binds

Molecule: PLK1 (Polo-like kinase 1), endogenous (from UniProt Q07832 1-603) (enzyme)
binding [1]: binds
binding [2]: binds

Molecule: Flag-PLK1 (Polo-like kinase 1) (from UniProt Q07832 1-603) (enzyme)
binding (Myc-NEK7): binds

More lines, now with the values ahead:

binding [3]: binds
Molecule: Recombinant mouse PLK1-his (from UniProt Q07832 1-603) (enzyme)

binding (Myc-NLRP3, Q8R4B8): no binding
B1: Flag-PLK1 (Polo-like kinase 1), Q07832 1-603 (enzyme)
chain: MNAAAKAGKLARAPADLGKGGVPGDAVPGAPVAAPLAKEIPEVLVDPRSRRQYVRGRFLGKGGFAKCFEISDADTKEVFAGKIVPKSLLLKPHQKEKMSMEISIHRSLAHQHVVGFHDFFEDSDFVFVVLELCRRRSLLELHKRRKALTEPEARYYLRQIVLGCQYLHRNQVIHRDLKLGNLFLNEDLEVKIGDFGLATKVEYEGERKKTLCGTPNYIAPEVLSKKGHSFEVDVWSIGCIMYTLLVGKPPFETSCLKETYLRIKKNEYSIPKHINPVAASLIQKMLQTDPTARPTIHELLNDEFFTSGYIPARLPITCLTIPPRFSIAPSSLDPSSRKPLKVLNKGVENPLPDRPREKEEPVVRETNEAIECHLSDLLQQLTSVNASKPSERGLVRQEEAEDPACIPIFWVSKWVDYSDKYGLGYQLCDNSVGVLFNDSTRLILYNDGDSLQYIERDGTESYLTVSSHPNSLMKKITLLNYFRNYMSEHLLKAGANITPREGDELARLPYLRTWFRTRSAIILHLSNGTVQINFFQDHTKLILCPLMAAVTYINEKRDFQTYRLSLLEEYGCCKELASRLRYARTMVDKLLSSRSASNRLKAS

binding [4]: no binding
B2: PLK1 (Polo-like kinase 1), endogenous, Q07832 1-603 (enzyme)
chain: MNAAAKAGKLARAPADLGKGGVPGDAVPGAPVAAPLAKEIPEVLVDPRSRRQYVRGRFLGKGGFAKCFEISDADTKEVFAGKIVPKSLLLKPHQKEKMSMEISIHRSLAHQHVVGFHDFFEDSDFVFVVLELCRRRSLLELHKRRKALTEPEARYYLRQIVLGCQYLHRNQVIHRDLKLGNLFLNEDLEVKIGDFGLATKVEYEGERKKTLCGTPNYIAPEVLSKKGHSFEVDVWSIGCIMYTLLVGKPPFETSCLKETYLRIKKNEYSIPKHINPVAASLIQKMLQTDPTARPTIHELLNDEFFTSGYIPARLPITCLTIPPRFSIAPSSLDPSSRKPLKVLNKGVENPLPDRPREKEEPVVRETNEAIECHLSDLLQQLTSVNASKPSERGLVRQEEAEDPACIPIFWVSKWVDYSDKYGLGYQLCDNSVGVLFNDSTRLILYNDGDSLQYIERDGTESYLTVSSHPNSLMKKITLLNYFRNYMSEHLLKAGANITPREGDELARLPYLRTWFRTRSAIILHLSNGTVQINFFQDHTKLILCPLMAAVTYINEKRDFQTYRLSLLEEYGCCKELASRLRYARTMVDKLLSSRSASNRLKAS
